Reference: US20190002527A1
Results are given in words; binding and its absence hold for the method and conditions named. For part of these data: In cells and extracts the contact can be indirect. Some results given as binding are weak or reduced against the parent protein; the word gives no strength. Values belong to the substance of their own block, whether it stands above or below them.

Amino acid sequences for entries named in this document (tags omitted). A change or cut given only in a name is not applied to a line headed by its entry.
UniProt Q9HBA0: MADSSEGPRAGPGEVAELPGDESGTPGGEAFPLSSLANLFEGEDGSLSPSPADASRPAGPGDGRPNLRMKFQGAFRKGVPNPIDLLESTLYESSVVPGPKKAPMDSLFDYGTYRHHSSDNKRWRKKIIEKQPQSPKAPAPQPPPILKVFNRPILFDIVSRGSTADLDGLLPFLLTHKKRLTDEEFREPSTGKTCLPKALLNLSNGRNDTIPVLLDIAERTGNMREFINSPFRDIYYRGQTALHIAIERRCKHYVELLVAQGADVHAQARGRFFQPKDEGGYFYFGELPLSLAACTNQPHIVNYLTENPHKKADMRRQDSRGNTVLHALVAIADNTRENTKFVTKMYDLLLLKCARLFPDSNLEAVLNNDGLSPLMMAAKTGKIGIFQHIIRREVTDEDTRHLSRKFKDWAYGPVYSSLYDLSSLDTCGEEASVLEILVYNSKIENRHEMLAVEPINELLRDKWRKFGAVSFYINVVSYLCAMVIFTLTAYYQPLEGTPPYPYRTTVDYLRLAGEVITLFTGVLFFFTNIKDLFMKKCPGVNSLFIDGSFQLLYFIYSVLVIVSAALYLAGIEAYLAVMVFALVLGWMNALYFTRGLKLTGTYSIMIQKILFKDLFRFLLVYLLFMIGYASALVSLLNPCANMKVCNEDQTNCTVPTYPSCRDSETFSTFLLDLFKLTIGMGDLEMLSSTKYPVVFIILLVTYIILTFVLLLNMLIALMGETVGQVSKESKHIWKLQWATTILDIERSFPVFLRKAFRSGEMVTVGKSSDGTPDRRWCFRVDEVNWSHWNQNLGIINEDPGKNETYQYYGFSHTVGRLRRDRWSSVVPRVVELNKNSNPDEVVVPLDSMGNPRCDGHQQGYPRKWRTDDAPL
UniProt P05556: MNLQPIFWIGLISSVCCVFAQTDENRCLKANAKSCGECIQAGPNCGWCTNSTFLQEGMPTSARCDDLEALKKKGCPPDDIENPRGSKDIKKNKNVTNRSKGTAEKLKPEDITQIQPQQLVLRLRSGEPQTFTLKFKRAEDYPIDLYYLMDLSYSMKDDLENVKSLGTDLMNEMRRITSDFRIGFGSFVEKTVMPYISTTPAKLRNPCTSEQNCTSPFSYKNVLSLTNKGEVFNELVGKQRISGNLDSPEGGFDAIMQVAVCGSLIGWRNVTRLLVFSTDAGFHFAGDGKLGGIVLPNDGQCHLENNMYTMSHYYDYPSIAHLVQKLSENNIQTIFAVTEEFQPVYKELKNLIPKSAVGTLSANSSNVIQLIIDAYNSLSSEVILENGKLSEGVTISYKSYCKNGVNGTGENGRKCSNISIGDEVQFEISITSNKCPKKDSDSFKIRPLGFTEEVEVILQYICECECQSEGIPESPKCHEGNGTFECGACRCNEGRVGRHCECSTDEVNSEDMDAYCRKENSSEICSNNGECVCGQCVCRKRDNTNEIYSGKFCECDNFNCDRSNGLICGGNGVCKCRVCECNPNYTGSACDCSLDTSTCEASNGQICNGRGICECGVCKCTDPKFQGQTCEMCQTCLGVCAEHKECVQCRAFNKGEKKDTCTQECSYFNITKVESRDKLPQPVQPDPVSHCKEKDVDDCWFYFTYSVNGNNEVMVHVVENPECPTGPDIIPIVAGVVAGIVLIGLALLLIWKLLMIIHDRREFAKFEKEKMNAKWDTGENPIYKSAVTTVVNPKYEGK
UniProt Q01650: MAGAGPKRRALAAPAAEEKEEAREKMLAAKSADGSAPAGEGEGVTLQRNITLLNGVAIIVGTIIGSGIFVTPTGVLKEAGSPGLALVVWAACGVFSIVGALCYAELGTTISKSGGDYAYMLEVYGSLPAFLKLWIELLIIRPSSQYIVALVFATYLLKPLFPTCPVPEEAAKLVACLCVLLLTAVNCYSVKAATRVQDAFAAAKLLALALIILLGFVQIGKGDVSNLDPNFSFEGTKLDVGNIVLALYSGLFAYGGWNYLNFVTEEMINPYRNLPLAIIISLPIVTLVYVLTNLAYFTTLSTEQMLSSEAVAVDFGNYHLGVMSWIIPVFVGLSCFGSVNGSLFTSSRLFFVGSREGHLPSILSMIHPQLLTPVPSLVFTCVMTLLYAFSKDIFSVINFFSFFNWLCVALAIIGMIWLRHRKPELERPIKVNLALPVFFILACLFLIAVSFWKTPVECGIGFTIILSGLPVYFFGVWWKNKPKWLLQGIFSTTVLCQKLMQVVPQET

Experiments:
[1] = biological target: TRPV4 (transient receptor potential vanilloid 4) (human) (UniProt Q9HBA0); assay: summary of the example's co-IP data
β1-integrin (human) [2] = biological target: β1-integrin (human) (UniProt P05556); assay: summary of the example's co-IP data
β1-integrin (human) [3] = biological target: β1-integrin (human) (UniProt P05556); assay: co-IP and localisation
[4] = biological target: TRPV4 (transient receptor potential vanilloid 4) (human) (UniProt Q9HBA0); assay: co-IP from HUVE cells, IP anti-TRPV4
[5] = biological target: TRPV4 (transient receptor potential vanilloid 4) (human) (UniProt Q9HBA0); assay: co-IP from HUVE cell lysate, IP anti-TRPV4, immunoblot
[6] = biological target: CD98 (cluster of differentiation 98) (human) (UniProt Q01650); assay: co-IP and localisation
[7] = biological target: CD98 (cluster of differentiation 98) (human) (UniProt Q01650); assay: co-IP from HUVE cell lysate, IP anti-CD98, immunoblot
[8] = biological target: CD98 (cluster of differentiation 98) (human) (UniProt Q01650); assay: co-IP and localisation, HUVE cells
[9] = biological target: CD98 (cluster of differentiation 98) (human) (UniProt Q01650); assay: co-IP from HUVE cell lysate, IP anti-CD98
[10] = biological target: CD98 (cluster of differentiation 98) (human) (UniProt Q01650); assay: co-IP from HUVE cells, IP anti-CD98
[11] = biological target: CD98 (cluster of differentiation 98) (human) (UniProt Q01650); assay: co-IP with deletion construct
[12] = biological target: CD98 (cluster of differentiation 98) (human) (UniProt Q01650); assay: immunoprecipitation assay with deletion construct

- binding [1]: binds
- binding (β1-integrin (human) [2]): binds
- binding (β1-integrin (human) [3]): binds
- binding [4]: binds
- binding [5]: binds
Substance: CD98 (cluster of differentiation 98) (from UniProt Q01650 1-507)

- binding [6]: binds
- binding [7]: binds
- binding [8]: binds
- binding [9]: binds
- binding [10]: binds
Substance: TRPV4 (transient receptor potential vanilloid 4) (from UniProt Q9HBA0 1-871)

- binding [11]: binds
- binding [12]: binds
Substance: TRPV4 with the transmembrane and C-terminal regions deleted (from UniProt Q9HBA0 1-469)
